From PMC4837325, “Arabidopsis HIGH PLOIDY2 Sumoylates and Stabilizes Flowering Locus C through Its E3 Ligase Activity” (Frontiers in Plant Science, 2016) come the findings set out here.

The chains behind the UniProt entries cited, without tags or fusion partners.
UniProt Q9S7Q7: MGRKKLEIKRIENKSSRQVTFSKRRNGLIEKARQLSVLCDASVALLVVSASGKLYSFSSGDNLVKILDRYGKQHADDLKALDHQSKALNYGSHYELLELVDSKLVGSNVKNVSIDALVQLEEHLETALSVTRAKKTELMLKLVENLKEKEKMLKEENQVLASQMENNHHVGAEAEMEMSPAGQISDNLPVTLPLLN

This test has as its target T1, HPY2-FLAG3 (Arabidopsis thaliana) (UniProt Q8GYH7).
T1 sequence: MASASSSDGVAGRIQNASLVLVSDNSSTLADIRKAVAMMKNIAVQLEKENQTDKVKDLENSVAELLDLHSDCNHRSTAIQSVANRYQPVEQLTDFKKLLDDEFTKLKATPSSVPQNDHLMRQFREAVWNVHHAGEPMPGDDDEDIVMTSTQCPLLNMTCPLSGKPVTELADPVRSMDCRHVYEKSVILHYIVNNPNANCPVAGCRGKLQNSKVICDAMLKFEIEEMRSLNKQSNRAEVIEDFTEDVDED
Put plainly: co-IP; Arabidopsis leaves co-infiltrated with 35S-Myc6-FLC and 35S-HPY2-FLAG3; total protein immunoprecipitated with anti-FLAG antibody in 50 mM Tris-Cl pH 8.0, 150 mM NaCl, 10% glycerol, 1% NP-40, 2 mM EDTA; FLC detected with anti-Myc antibody.

No constants are given. Whether binding was seen depends on the method and setting. Binding seen in cells or lysates may run through a third protein. Some results given as binding are weak or reduced against the parent protein; the word gives no strength. Sequences can lack the tags named with a protein.

With Myc6-FLC (from UniProt Q9S7Q7 1-196), the binding result is on record as “binds”.
